# In the supplement of paper PMC6411743:
# Protein sequences, listed by entry. Tags and fused reporters are not part of them. Lines headed by an entry give the natural chain unless they say otherwise; changes in a name come on top.
# UniProt Q92604: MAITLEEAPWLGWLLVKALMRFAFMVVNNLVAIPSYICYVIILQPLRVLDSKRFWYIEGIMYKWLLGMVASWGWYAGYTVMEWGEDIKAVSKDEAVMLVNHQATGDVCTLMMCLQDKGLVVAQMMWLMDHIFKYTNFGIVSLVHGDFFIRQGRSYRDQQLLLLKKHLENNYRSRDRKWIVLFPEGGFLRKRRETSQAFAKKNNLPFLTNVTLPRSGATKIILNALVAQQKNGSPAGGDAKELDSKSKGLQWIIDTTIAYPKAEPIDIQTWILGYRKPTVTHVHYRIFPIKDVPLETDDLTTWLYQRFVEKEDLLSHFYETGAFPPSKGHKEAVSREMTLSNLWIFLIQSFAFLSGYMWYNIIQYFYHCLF
# UniProt Q92615, whole entry: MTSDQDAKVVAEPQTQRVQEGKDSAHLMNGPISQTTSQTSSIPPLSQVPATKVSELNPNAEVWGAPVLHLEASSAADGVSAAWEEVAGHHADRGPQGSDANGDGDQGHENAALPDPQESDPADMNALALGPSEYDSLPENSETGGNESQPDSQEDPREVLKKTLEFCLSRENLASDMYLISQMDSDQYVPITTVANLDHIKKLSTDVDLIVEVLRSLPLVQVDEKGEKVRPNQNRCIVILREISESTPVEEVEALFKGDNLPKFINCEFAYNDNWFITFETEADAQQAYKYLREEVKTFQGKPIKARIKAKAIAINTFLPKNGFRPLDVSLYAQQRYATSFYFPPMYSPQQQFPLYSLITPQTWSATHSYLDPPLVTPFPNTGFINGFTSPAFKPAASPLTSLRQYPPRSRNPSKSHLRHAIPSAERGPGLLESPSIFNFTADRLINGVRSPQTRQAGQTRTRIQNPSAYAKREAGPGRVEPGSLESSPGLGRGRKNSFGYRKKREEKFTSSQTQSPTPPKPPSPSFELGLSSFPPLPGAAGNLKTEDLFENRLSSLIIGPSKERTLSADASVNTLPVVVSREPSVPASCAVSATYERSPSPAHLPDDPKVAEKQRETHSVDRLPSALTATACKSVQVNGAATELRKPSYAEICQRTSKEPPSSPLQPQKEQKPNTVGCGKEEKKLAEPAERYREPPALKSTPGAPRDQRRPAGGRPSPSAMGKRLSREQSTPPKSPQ
# UniProt Q8TAA5: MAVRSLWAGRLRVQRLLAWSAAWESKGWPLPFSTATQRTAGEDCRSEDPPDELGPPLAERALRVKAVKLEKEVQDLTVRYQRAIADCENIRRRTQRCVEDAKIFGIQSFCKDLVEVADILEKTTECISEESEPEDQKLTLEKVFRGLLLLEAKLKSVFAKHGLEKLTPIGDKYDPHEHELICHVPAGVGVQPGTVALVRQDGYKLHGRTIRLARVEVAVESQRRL
# UniProt Q92794, whole entry, looked up: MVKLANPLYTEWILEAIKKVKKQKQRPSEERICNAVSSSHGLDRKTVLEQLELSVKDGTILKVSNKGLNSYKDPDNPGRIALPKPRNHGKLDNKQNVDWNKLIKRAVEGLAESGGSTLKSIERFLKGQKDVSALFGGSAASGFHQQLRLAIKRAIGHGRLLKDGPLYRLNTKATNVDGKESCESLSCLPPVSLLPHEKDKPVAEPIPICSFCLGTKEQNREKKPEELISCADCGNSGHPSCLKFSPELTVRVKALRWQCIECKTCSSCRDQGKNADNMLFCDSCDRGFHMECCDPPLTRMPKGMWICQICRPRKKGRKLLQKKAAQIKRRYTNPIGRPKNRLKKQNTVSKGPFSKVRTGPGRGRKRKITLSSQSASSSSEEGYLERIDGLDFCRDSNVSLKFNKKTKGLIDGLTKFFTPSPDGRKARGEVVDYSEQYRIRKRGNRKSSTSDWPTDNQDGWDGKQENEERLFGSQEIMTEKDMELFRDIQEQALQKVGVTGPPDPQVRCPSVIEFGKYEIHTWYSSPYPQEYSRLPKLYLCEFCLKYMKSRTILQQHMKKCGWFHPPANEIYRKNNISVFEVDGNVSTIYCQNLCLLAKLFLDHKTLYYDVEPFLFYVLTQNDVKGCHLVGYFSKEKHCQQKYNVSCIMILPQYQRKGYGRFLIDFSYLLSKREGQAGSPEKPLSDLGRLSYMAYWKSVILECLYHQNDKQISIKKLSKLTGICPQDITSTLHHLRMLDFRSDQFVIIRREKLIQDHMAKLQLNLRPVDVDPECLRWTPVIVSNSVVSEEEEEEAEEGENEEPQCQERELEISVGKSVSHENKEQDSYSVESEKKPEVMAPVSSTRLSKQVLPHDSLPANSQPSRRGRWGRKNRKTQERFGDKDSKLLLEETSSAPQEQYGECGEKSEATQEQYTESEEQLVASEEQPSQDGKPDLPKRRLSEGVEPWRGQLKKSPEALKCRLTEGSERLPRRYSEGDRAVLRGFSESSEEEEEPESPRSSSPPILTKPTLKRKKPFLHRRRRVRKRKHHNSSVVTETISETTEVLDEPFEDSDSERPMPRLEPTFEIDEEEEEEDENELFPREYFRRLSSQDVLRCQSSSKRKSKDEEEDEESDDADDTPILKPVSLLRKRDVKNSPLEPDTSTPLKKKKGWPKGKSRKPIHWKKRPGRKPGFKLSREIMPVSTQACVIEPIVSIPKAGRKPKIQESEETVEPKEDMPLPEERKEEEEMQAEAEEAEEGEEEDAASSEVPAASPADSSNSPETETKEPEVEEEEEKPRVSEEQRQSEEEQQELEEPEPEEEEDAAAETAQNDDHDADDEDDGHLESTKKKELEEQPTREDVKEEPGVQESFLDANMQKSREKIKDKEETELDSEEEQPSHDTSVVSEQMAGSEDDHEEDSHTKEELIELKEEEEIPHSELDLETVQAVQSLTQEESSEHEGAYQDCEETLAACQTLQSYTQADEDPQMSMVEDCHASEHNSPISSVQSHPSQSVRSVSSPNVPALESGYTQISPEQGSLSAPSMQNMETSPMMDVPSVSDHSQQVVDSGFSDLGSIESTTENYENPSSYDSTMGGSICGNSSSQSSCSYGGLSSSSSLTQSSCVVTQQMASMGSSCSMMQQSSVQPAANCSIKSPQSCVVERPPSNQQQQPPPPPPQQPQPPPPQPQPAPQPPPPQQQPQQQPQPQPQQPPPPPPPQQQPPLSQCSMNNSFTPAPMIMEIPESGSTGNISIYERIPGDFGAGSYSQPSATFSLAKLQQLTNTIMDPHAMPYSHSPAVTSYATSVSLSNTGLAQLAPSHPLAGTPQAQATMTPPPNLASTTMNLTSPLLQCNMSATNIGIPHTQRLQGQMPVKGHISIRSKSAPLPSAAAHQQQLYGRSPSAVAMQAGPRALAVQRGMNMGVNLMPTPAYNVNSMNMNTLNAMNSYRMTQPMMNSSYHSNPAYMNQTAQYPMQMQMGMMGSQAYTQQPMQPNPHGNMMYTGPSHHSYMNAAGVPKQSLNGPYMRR
# UniProt Q92930: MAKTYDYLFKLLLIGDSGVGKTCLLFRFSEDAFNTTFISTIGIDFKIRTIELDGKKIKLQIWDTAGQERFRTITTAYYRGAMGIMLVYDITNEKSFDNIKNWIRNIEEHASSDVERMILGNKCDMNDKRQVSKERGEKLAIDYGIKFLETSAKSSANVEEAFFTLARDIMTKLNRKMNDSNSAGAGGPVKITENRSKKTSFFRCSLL
# UniProt Q8TCD1: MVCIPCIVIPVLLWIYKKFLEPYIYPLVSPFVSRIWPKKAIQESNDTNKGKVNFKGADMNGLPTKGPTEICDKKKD
# UniProt Q92626: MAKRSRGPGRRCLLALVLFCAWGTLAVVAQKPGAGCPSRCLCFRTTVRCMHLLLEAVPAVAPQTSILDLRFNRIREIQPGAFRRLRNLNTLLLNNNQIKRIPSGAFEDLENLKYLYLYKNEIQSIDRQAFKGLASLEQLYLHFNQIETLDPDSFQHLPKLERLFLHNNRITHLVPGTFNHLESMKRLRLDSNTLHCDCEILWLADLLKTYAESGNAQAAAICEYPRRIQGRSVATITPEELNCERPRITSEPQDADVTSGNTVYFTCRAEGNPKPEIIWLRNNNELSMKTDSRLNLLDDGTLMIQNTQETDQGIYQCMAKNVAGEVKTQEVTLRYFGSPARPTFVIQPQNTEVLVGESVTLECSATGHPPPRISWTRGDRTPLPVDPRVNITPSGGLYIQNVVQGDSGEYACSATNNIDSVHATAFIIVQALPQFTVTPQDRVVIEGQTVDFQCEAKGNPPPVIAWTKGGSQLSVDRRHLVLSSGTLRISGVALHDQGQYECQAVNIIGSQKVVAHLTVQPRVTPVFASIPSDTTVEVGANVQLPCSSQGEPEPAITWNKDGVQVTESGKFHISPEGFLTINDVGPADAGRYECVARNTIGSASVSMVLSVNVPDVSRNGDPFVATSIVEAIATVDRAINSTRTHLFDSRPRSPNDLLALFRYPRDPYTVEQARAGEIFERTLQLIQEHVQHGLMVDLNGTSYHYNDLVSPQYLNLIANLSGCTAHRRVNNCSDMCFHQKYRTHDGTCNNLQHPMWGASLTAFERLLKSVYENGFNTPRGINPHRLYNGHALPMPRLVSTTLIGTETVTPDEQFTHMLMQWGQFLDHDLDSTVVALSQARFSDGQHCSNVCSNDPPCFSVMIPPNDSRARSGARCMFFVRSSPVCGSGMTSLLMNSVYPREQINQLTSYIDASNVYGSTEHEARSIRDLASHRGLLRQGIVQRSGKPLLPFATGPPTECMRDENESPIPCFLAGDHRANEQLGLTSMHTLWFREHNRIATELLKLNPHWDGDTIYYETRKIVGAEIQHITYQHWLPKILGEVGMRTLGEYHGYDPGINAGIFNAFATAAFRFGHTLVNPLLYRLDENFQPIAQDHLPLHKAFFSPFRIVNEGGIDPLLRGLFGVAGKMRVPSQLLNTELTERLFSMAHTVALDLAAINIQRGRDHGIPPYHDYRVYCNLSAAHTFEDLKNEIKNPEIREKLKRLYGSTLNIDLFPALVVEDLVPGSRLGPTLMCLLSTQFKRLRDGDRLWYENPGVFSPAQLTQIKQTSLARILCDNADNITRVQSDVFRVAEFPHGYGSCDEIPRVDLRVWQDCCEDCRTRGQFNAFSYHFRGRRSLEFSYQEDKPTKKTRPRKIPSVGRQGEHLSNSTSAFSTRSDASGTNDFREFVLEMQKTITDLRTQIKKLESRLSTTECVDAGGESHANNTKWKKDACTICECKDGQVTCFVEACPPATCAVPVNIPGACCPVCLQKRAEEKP
# UniProt Q8TEA1: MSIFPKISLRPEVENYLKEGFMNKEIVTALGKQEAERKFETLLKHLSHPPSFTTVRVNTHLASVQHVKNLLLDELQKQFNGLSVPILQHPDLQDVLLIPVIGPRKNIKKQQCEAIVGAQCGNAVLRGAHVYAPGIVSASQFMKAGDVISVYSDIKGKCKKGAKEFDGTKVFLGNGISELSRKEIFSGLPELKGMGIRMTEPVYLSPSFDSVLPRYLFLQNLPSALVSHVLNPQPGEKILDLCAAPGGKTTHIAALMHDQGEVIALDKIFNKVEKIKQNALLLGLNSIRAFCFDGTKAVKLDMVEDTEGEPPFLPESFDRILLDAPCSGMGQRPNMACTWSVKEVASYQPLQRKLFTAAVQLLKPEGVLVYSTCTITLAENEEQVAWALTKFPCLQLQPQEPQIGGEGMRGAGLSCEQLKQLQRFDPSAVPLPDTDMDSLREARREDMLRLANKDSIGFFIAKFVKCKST
# UniProt Q8ND76: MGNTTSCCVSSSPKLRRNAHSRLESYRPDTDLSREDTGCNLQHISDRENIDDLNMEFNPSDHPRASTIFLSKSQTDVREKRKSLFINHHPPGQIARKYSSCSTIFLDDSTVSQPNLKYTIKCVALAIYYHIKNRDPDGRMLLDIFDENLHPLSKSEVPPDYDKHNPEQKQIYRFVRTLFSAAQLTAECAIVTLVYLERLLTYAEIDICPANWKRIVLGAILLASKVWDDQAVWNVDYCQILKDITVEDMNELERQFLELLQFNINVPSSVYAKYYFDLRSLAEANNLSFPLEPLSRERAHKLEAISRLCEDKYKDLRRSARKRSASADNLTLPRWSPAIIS
# UniProt Q8TC12: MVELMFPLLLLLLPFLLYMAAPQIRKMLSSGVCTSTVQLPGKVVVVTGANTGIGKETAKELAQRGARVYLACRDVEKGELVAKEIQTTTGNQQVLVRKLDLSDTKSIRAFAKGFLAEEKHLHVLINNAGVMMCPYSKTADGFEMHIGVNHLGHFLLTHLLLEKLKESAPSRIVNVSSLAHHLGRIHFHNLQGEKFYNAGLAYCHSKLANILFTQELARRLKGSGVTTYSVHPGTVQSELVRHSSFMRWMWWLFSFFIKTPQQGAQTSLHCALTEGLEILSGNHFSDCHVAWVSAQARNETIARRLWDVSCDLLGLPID
# UniProt Q92567: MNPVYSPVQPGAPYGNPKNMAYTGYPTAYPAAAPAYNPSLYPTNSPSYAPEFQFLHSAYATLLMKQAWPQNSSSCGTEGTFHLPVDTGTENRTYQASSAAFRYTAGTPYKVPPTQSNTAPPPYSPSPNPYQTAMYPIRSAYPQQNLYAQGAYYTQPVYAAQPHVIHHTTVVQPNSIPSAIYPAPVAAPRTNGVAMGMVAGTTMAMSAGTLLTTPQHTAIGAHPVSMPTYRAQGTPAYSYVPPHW
# ± gives the standard deviation of the averaged measurements. The list shows a part of the results, in another mix than the full data.
# Compound: Nc1ncnc2c1ncn2[C@@H]1O[C@H](COP(=O)(O)OP(=O)(O)NP(=O)(O)O)[C@@H](O)[C@H]1O [adenylyl imidodiphosphate]
# Test: NP40-soluble protein abundance relative to vehicle (solubility fold change) (ratio); higher = more soluble protein in presence of AMP-PNP
# Procedure, shortened: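 Across three independent experiments, values are fold changes against the detergent-processed vehicle for each replicate, based on vsn-normalised intensities. The samples were Jurkat crude lysate treated with eight concentrations (0.1 to 10 mM) for 10 min at room temperature and then 3 min at 37 °C. Lysate was solubilised with 0.8% NP40 and benzonase, ultracentrifuged, and the supernatant analysed by TMT-labelled LC-MS/MS.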
Target,NP40-soluble protein abundance (concentration: 1mM),NP40-soluble protein abundance (concentration: 2mM),NP40-soluble protein abundance (concentration: 4mM),NP40-soluble protein abundance (concentration: 6mM),NP40-soluble protein abundance (concentration: 8mM),NP40-soluble protein abundance (concentration: 10mM)
LPGAT1 (UniProt Q92604),0.944 ± 0.016,0.931 ± 0.017,0.9501 ± 0.0046,0.9566 ± 0.0013,0.991 ± 0.023,0.9529 ± 0.0026
UniProt Q92615,1.04 ± 0.016,1.09 ± 0.029,1.12 ± 0.027,1.1 ± 0.051,1.12 ± 0.043,1.16 ± 0.055
OVCA2 (UniProt Q8WZ82),1.01 ± 0.018,0.992 ± 0.052,1.01 ± 0.062,0.981 ± 0.018,1.01 ± 0.041,0.999 ± 0.03
CXorf38 (UniProt Q8TB03),0.9868 ± 0.0075,1.01 ± 0.023,1 ± 0.042,0.997 ± 0.023,0.98 ± 0.031,0.981 ± 0.042
NOC3L (UniProt Q8WTT2),1.09 ± 0.046,1.13 ± 0.1,1.11 ± 0.048,1.24 ± 0.048,1.23 ± 0.052,1.28 ± 0.085
UniProt Q8WU10 and related entries,0.99 ± 0.032,0.967 ± 0.064,1.01 ± 0.032,0.988 ± 0.017,0.991 ± 0.055,1 ± 0.022
GRPEL2 (UniProt Q8TAA5),1.01 ± 0.015,1.038 ± 0.0016,1.024 ± 0.0071,1.04 ± 0.045,1.043 ± 0.0071,1.03 ± 0.025
UniProt Q92542 and related entries,0.978 ± 0.022,0.99 ± 0.059,1 ± 0.028,0.983 ± 0.02,0.969 ± 0.018,0.992 ± 0.036
UniProt Q92859 and related entries,1 ± 0.024,1.01 ± 0.042,1.002 ± 0.0089,0.985 ± 0.045,1 ± 0.015,1.019 ± 0.0076
MYST3 (UniProt Q92794),0.996 ± 0.018,1.04 ± 0.021,1.01 ± 0.034,1.01 ± 0.013,1.02 ± 0.018,1.04 ± 0.031
NANP (UniProt Q8TBE9),1.02 ± 0.016,0.988 ± 0.011,1 ± 0.04,1.01 ± 0.054,1.044 ± 0.0074,1.02 ± 0.033
RAB8B (UniProt Q92930),1.01 ± 0.028,0.973 ± 0.044,0.979 ± 0.047,0.96 ± 0.021,0.957 ± 0.031,0.957 ± 0.045
C18orf32 (UniProt Q8TCD1),0.93 ± 0.024,0.992 ± 0.013,0.934 ± 0.025,0.944 ± 0.031,0.901 ± 0.027,0.882 ± 0.047
PXDN (UniProt Q92626),0.964 ± 0.043,0.977 ± 0.021,0.995 ± 0.034,0.978 ± 0.026,0.969 ± 0.024,1.02 ± 0.024
NSUN6 (UniProt Q8TEA1),1.03 ± 0.012,1.01 ± 0.043,1.02 ± 0.024,1 ± 0.035,1 ± 0.012,1.02 ± 0.023
UniProt Q8TAV0 and related entries,1.05 ± 0.0049,1.04 ± 0.018,1.06 ± 0.068,1.06 ± 0.055,1.06 ± 0.064,1.03 ± 0.019
PSPC1 (UniProt Q8WXF1),1.03 ± 0.024,1.05 ± 0.054,1.09 ± 0.015,1.13 ± 0.026,1.14 ± 0.049,1.14 ± 0.053
CCNY (UniProt Q8ND76),0.9751 ± 0.0046,0.989 ± 0.028,1.03 ± 0.049,0.973 ± 0.025,0.993 ± 0.011,0.965 ± 0.017
UniProt Q8NFA0 and related entries,0.969 ± 0.033,1.01 ± 0.07,0.986 ± 0.035,0.983 ± 0.014,0.94 ± 0.044,0.959 ± 0.035
UniProt Q8TAA9 and related entries,1.02 ± 0.025,1.03 ± 0.064,1.02 ± 0.028,1.01 ± 0.019,1.02 ± 0.02,1.02 ± 0.054
AKAP1 (UniProt Q92667),1.02 ± 0.025,1.07 ± 0.074,1.02 ± 0.023,0.993 ± 0.023,0.962 ± 0.012,1 ± 0.017
HDAC2 (UniProt Q92769),1.02 ± 0.034,0.976 ± 0.03,0.979 ± 0.035,0.993 ± 0.062,1.04 ± 0.05,0.968 ± 0.071
UniProt Q8TEH3 and related entries,1.03 ± 0.02,1.05 ± 0.12,1.04 ± 0.052,1.08 ± 0.046,1.04 ± 0.038,1.05 ± 0.063
UniProt Q8WVE0,0.9979 ± 0.0064,0.992 ± 0.023,0.998 ± 0.011,1 ± 0.015,1.04 ± 0.017,0.995 ± 0.012
RDH11 (UniProt Q8TC12),0.945 ± 0.046,0.859 ± 0.081,0.926 ± 0.028,0.953 ± 0.073,0.968 ± 0.064,0.919 ± 0.061
UniProt Q8TAP6 and related entries,0.992 ± 0.028,0.999 ± 0.037,0.982 ± 0.051,0.969 ± 0.034,1.01 ± 0.034,0.985 ± 0.03
UniProt Q8NHH9 and related entries,1.02 ± 0.043,1 ± 0.046,1.01 ± 0.022,0.96 ± 0.017,0.964 ± 0.011,0.96 ± 0.052
UniProt Q8TDY2 and related entries,1.05 ± 0.054,1.08 ± 0.024,1.05 ± 0.025,1.01 ± 0.077,0.986 ± 0.021,1.02 ± 0.028
UniProt Q92567 and related entries,1.01 ± 0.0066,1.01 ± 0.026,0.9905 ± 0.0034,1.018 ± 0.0052,1.004 ± 0.0016,1.017 ± 0.0094
UniProt Q92608 and related entries,0.986 ± 0.033,0.942 ± 0.066,1.02 ± 0.046,1.06 ± 0.033,1.09 ± 0.037,1.08 ± 0.084

# Single records, as listed above. Values in the order: NP40-soluble protein abundance (concentration: 1mM)	NP40-soluble protein abundance (concentration: 2mM)	NP40-soluble protein abundance (concentration: 4mM)	NP40-soluble protein abundance (concentration: 6mM)	NP40-soluble protein abundance (concentration: 8mM)	NP40-soluble protein abundance (concentration: 10mM)
# GRPEL2 (UniProt Q8TAA5) as listed: 1.01 ± 0.015	1.038 ± 0.0016	1.024 ± 0.0071	1.04 ± 0.045	1.043 ± 0.0071	1.03 ± 0.025
# UniProt Q92567 and related entries as listed: 1.01 ± 0.0066	1.01 ± 0.026	0.9905 ± 0.0034	1.018 ± 0.0052	1.004 ± 0.0016	1.017 ± 0.0094
